{"source": "PubChem BioAssay AID504834", "about": "(National Center for Advancing Translational Sciences (NCATS), 2011)", "note": "Out of some 320,000 compounds screened, about 22,000 (6.9%) were called active. The inconclusive results got no clear call from the source; some entries with a clear call stand among them for comparison. Calls follow the shape of the dose curve; as a rule, active = well fitted inhibition curve with a large enough effect; inconclusive = small, poorly fitted or top-dose-only effect, or another doubt; inactive = no such curve, though single readings can be large or run the other way. Potencies of inconclusive entries are doubtful fits and often do not repeat. % is scaled to controls: 0 for no effect and ±100 for the full control effect; potency is read from the fitted curve at half-maximal effect."}
{"test": "Primary qHTS for delayed death inhibitors of the malarial parasite plastid, 96 hour incubation", "conditions": "P. falciparum luciferase reporter growth; series mostly up to 28.7 µM; activity change, negative = inhibition: at the top concentration", "how_it_was_run": "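Erythrocytes infected with luciferase-expressing P. falciparum were dispensed at 2% hematocrit and 0.05% parasitemia (final), then incubated with compounds 96 hours at 37 C in 5% CO2. Luminescence after detection reagent addition reported growth.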"}
{"smiles": "Cc1nn(C)c(C)c1S(=O)(=O)N1CCC(C(=O)NCC2COc3ccccc3O2)CC1", "note": "(configuration not stated)", "Potency": "inconclusive: 18.5 µM [inhibitor, single point]"}
{"smiles": "CCOCC(=O)Nc1ccc2c(c1)N(S(=O)(=O)c1cccs1)CCC2", "activity change, negative = inhibition": "inactive: 0.0779%"}
{"smiles": "O=C(Nc1ccc2nc(-c3ccccc3)[nH]c2c1)c1cccs1", "Potency": "inconclusive: 18.5 µM [inhibitor, single point]"}
{"smiles": "OC(CNCC1(N2CCCCC2)CCCCC1)COc1ccc(Cl)cc1Cl", "note": "(configuration not stated)", "Potency": "inconclusive: 4.15 µM [inhibitor, single point]"}
{"smiles": "c1cncc(CNc2ncnc3sc4c(c23)CCCC4)c1", "activity change, negative = inhibition": "inactive: 157%"}
{"smiles": "CCc1ccc(N2CC(C(=O)Nc3ccc4c(c3)OCCO4)CC2=O)cc1", "note": "(configuration not stated)", "activity change, negative = inhibition": "inactive: 39.4%"}
{"smiles": "Cc1cccc(S(=O)(=O)NC2CCCCCCC2)c1", "activity change, negative = inhibition": "inactive: -2.84%"}
{"smiles": "COC(=O)c1cnn(-c2ccc(C(=O)Nc3cccc(C(C)=O)c3)cc2)c1N", "Potency": "inconclusive: 2.33 µM [inhibitor, partial curve, poor fit]"}
{"smiles": "Cc1ccc(C)c(OCc2nc3ccc(S(=O)(=O)Nc4c(C)n(C)n(-c5ccccc5)c4=O)cc3[nH]2)c1", "Potency": "active: 5.22 µM"}
{"smiles": "CCOC(=O)c1sc2nc(N3CCOCC3)c3c(c2c1N)CCN(Cc1ccccc1)C3", "Potency": "active: 9.28 µM"}
{"smiles": "CCCCN(CC)CCNC(=O)Cn1cnc2sc(C)c(S(=O)(=O)N3CCC(C)CC3)c2c1=O", "activity change, negative = inhibition": "inactive: -2.19%"}
{"smiles": "Cc1cc(S(=O)(=O)N2CCCCC2)ccc1OCC(=O)N1CCCC1", "Potency": "inconclusive: 3.29 µM [inhibitor, single point]"}
{"smiles": "COc1ccccc1N1CCN(C2CC(=O)N(c3ccccc3)C2=O)CC1", "note": "(configuration not stated)", "Potency": "inconclusive: 18.5 µM [inhibitor, single point]"}
{"smiles": "CC1(C)C=C2C(=NN(c3ccccc3)C(N)=C2C#N)CO1", "Potency": "inconclusive: 10.4 µM [inhibitor, single point]"}
{"smiles": "Cc1cc(S(=O)(=O)Nc2cccc(Cl)c2)c(C)s1", "Potency": "inconclusive: 18.5 µM [inhibitor, single point]"}
{"smiles": "O=C(NCCCn1ccnc1)c1ccncc1", "Potency": "inconclusive: 18.5 µM [inhibitor, single point]"}
{"smiles": "CCCCCC(=O)N1CC2(CC(c3cccc(NC(=O)CC(c4ccccc4)c4ccccc4)c3)=NO2)C[C@@H]1C(N)=O", "note": "(some centres not stated)", "Potency": "inconclusive: 18.5 µM [inhibitor, single point]"}
{"smiles": "CN1CCN(C(=S)Nc2ccc(Cl)c(Cl)c2)CC1", "Potency": "inconclusive: 5.86 µM [inhibitor, partial curve, poor fit]"}
{"smiles": "Cc1ccsc1CN(C)C(=O)CN1C(=O)NC(c2ccccc2)(c2ccccc2)C1=O", "Potency": "active: 9.28 µM"}
{"smiles": "N=c1ccn(Cc2ccc(F)cc2)cc1", "Potency": "inconclusive: 1.65 µM [inhibitor, full curve]"}
{"smiles": "S=C(NCCc1ccccc1)N1CCn2cccc2C1c1ccncc1", "note": "(configuration not stated)", "Potency": "inconclusive: 10.4 µM [inhibitor, single point]"}
{"smiles": "Cc1ccc2cccc(SCC(=O)Nc3ccc(F)cc3)c2n1", "activity change, negative = inhibition": "inactive: -27.5%"}
{"smiles": "O=C(NCc1ccccn1)Nc1cccc(Cl)c1", "Potency": "inconclusive: 9.28 µM [inhibitor, partial curve, poor fit]"}
{"smiles": "O=C(NCCCO)/C(=C\\c1ccco1)NC(=O)c1ccc(Br)o1", "activity change, negative = inhibition": "inactive: -20.2%"}
{"smiles": "O=C(Nc1ccc(C(=O)c2ccccc2)cc1)c1ccccc1", "Potency": "inconclusive: 18.5 µM [inhibitor, single point]"}
{"smiles": "N#CC(Cc1cccc(CC(C#N)(c2ccccc2)c2ccccc2)c1)(c1ccccc1)c1ccccc1", "Potency": "active: 0.828 µM"}
{"smiles": "O=C(N/N=C/c1cccc(Oc2ccccc2)c1)c1ccc(O)cc1O", "Potency": "inconclusive: 16.5 µM [inhibitor, single point]"}
{"smiles": "O=C(Nc1cc(Sc2ccccn2)cc([N+](=O)[O-])c1)c1ccc([N+](=O)[O-])cc1", "Potency": "active: 3.29 µM"}
{"smiles": "COc1cc(-c2nc(CN3CCN(C(=O)c4ccco4)CC3)c(C)o2)ccc1F", "Potency": "inconclusive: 10.4 µM [inhibitor, single point]"}
{"smiles": "O=C(Nc1ccccc1F)c1ccco1", "activity change, negative = inhibition": "inactive: -21.6%"}
{"smiles": "Cc1ccc(CNC(=O)C(=O)NCC2OCCN2S(=O)(=O)c2ccc3c(c2)OCCO3)cc1", "note": "(configuration not stated)", "Potency": "inconclusive: 13.1 µM [inhibitor, partial curve, poor fit]"}
{"smiles": "COc1ccc2oc(=O)c(/C(C)=N/Nc3nc(-c4cc(C)ccc4C)cs3)cc2c1", "Potency": "inconclusive: 14.7 µM [inhibitor, partial curve, poor fit]"}
{"smiles": "Cc1ccc(/C=C/c2onc(C)c2S(=O)(=O)N2CCC(C(=O)NC(C)(C)C)CC2)cc1", "Potency": "inconclusive: 18.5 µM [inhibitor, single point]"}
{"smiles": "Cc1cccc(C(=O)Nc2cccc(-c3cnc4ccccc4n3)c2)c1", "Potency": "inconclusive: 18.5 µM [inhibitor, single point]"}
{"smiles": "COc1ccc(CC(=O)Nc2cccc(C(=O)Nc3cccc(C)c3)c2)cc1", "Potency": "inconclusive: 0.262 µM [inhibitor, full curve, poor fit]"}
{"smiles": "CC(=O)OCC(=O)[C@@]12OC3(CCCC3)OC1CC1C3CCC4=CC(=O)C=C[C@@]4(C)[C@]3(F)C(O)C[C@]12C", "note": "(some centres not stated)", "Potency": "active: 9.53 µM"}
{"smiles": "CCOc1ccc(OCCCCNCCN)cc1", "Potency": "inconclusive: 16.5 µM [inhibitor, single point]"}
{"smiles": "COc1ccc(N=C(N)SCc2ccccn2)cc1", "Potency": "inconclusive: 18.5 µM [inhibitor, partial curve, poor fit]"}
{"smiles": "COc1cccc(CN(C)C(=S)Nc2cccc(C)c2)c1", "Potency": "inconclusive: 8.28 µM [inhibitor, partial curve]"}
{"smiles": "COc1ccc(CCNS(=O)(=O)c2ccc([N+](=O)[O-])cc2)cc1OC", "Potency": "inconclusive: 11.7 µM [inhibitor, partial curve, poor fit]"}
{"smiles": "COC(=O)C1=C(c2ccc(-c3ccccc3)c(F)c2)C[C@@H]2CC[C@H]1N2C(=O)NCc1ccc(F)cc1", "Potency": "inconclusive: 2.62 µM [inhibitor, full curve, poor fit]"}
{"smiles": "Cc1ccc2nc(Cl)c(/C=C/C(=O)c3ccco3)cc2c1", "activity change, negative = inhibition": "inactive: 19.4%"}
{"smiles": "O=C(Nc1ccc(C(F)(F)F)cc1[N+](=O)[O-])O[C@H]1[C@H](Cc2ccccc2)NS(=O)(=O)[C@H]2C[C@@H]3C=C[C@]12O3", "Potency": "inconclusive: 10.4 µM [inhibitor, single point]"}
{"smiles": "CC(=O)Nc1ccc(C(=O)COC(=O)c2nc3nc(C)cc(C)n3n2)cc1", "activity change, negative = inhibition": "inactive: 46.4%"}
{"smiles": "CCCCCN(C(=O)CCC(=O)OCc1ccc(C(C)(C)C)cc1)c1c(N)n(CCCC)c(=O)[nH]c1=O", "Potency": "active: 8.28 µM"}
{"smiles": "Cn1c(CN2CCCCC2)nc2cc(NC(=O)c3cccc(Br)c3)ccc21", "Potency": "active: 4.65 µM"}
{"smiles": "O=C(c1ccco1)N(CCO)Cc1cc2cc3c(cc2[nH]c1=O)OCO3", "activity change, negative = inhibition": "inactive: -1.12%"}
{"smiles": "CCN(CCNC(=O)C1CCCN(S(=O)(=O)c2cnc[nH]2)C1)c1ccccc1", "note": "(configuration not stated)", "Potency": "inconclusive: 18.5 µM [inhibitor, single point]"}
{"smiles": "CC(=O)/C(=N\\Nc1ccccc1)Sc1nncn1C", "activity change, negative = inhibition": "inactive: 4.22%"}
{"smiles": "COCCNC(=O)C(C)OC(=O)c1cc2sccc2n1C", "note": "(configuration not stated)", "Potency": "inconclusive: 10.4 µM [inhibitor, partial curve, poor fit]"}
{"smiles": "OC1(c2ccccc2)CCN(Cc2ccccc2)C2CCCCC21", "note": "(configuration not stated)", "activity change, negative = inhibition": "inactive: 61.7%"}
{"smiles": "Cc1ccc2nc(NC(=O)CCCC(=O)O)sc2c1", "Potency": "inconclusive: 18.5 µM [inhibitor, single point]"}
{"smiles": "O=C(C1CN(C(=O)c2cc3cc(Cl)ccc3o2)c2ccccc2O1)N1CCCCC1", "note": "(configuration not stated)", "Potency": "inconclusive: 18.5 µM [inhibitor, single point]"}
{"smiles": "COc1cc(C(=O)N[C@H](C(=O)Nc2nnc(C3CC3)s2)C(C)C)cc(OC)c1OC", "Potency": "inconclusive: 2.08 µM [inhibitor, full curve]"}
{"smiles": "CCc1nn(CC(=O)NC(C)CCc2ccccc2)c(=O)c2cc3cc(F)ccc3n12", "note": "(configuration not stated)", "Potency": "inconclusive: 2.08 µM [inhibitor, full curve]"}
{"smiles": "O=C(CCOc1ccccc1)Nc1ccnn1C1CCN(C(=O)CCC(F)(F)F)CC1", "Potency": "active: 11.7 µM"}
{"smiles": "Cc1ccc(NC(=O)CCCn2nc(C)c3c(C)n(-c4ccccc4)nc3c2=O)cc1C", "Potency": "inconclusive: 8.28 µM [inhibitor, partial curve]"}
{"smiles": "CCCCC(=O)Nc1nc2c(OC)cc([N+](=O)[O-])cc2s1", "Potency": "inconclusive: 2.08 µM [inhibitor, partial curve, poor fit]"}
{"smiles": "COc1cc2nc(N3CCN(C(=O)[C@@H]4COc5ccccc5O4)CC3)nc(N)c2cc1OC", "Potency": "active: 13.5 µM"}
{"smiles": "COc1ccc(/C(N)=N/OC(=O)c2cccc([N+](=O)[O-])c2)cc1", "Potency": "inconclusive: 11.7 µM [inhibitor, partial curve]"}
{"smiles": "COc1cc(OC)cc(C(=O)N2CCN(C3CCCCC3)CC2)c1", "Potency": "inconclusive: 10.4 µM [inhibitor, single point]"}
{"smiles": "Cc1cc(C)nc(N/N=C/c2ccccc2OCc2cccc(Br)c2)n1", "Potency": "inconclusive: 18.5 µM [inhibitor, single point]"}
{"smiles": "O=c1[nH]c(=S)[nH]c(O)c1N=Nc1cc2c(cc1[N+](=O)[O-])OCO2", "activity change, negative = inhibition": "inactive: 35.2%"}
{"smiles": "COc1ccc(/C=C2\\SC(=O)N(CCC(=O)N3CCN(C)CC3)C2=O)cc1", "Potency": "inconclusive: 18.5 µM [inhibitor, single point]"}
{"smiles": "CC(C)(C)c1csc(NC(=O)c2cccs2)n1", "Potency": "inconclusive: 18.5 µM [inhibitor, single point]"}
{"smiles": "CCCc1cc(=O)oc2cc(C)cc(OCC(=O)NCC(O)c3ccccc3)c12", "note": "(configuration not stated)", "Potency": "inconclusive: 0.329 µM [inhibitor, full curve]"}
{"smiles": "CCNc1nc(NCC)nc(N/N=C/c2ccc(O)c(O)c2)n1", "Potency": "inconclusive: 10.4 µM [inhibitor, single point]"}
